# The other results are listed elsewhere or left out.
# B1: Clec12b (Mus musculus), Q149M0 (protein)
# chain: MSDEVTYATLMLQDSARVRGNQDGNNLRKEGHPAQSSLWRGAALSLMTLCLVLVTGLVTLATMFLQVSNDINSDSEKLSQLQKSIHPQQDNLSESLNSSRKSLTEESLQSQISALLERQEQMATKLCKEFLIHASDHKCNPCPKTWQWYGNSCYYFSINEEKSWSDSRKDCIDKNATLVKIDSTEERDLLQSQLSLTFSFFWLGLSWNSSGRNWLWEDGSFPPPTLFSDKELASFNGSRDCAYFERGNIYASRCSAEIPWICEKTASLVKTEDLD
# Tests used:
# Experiment in all cases: glycan array binding signal (z-score within array); higher = stronger binding
# Details in all cases: glycan notation: IUPAC condensed, linker removed
# Fuc(a1-2)Gal = target: Fuc(a1-2)Gal
# Procedure, shortened: (§1)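 Arrays were curated from the Consortium for Functional Glycomics database, 3228 in total, and kept only where the protein sequence was available. Binding is expressed as a within-array Z-score. This score was averaged across arrays of the same protein sequence at different concentrations or buffers and across linkers, and negative values can be read as non-binding.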
# Fuc(a1-2)Gal(b1-3)GalNAc = target: Fuc(a1-2)Gal(b1-3)GalNAc
# Procedure, shortened: as §1
# [1] = target: Fuc(a1-2)Gal(b1-3)GalNAc(a1-3)[Fuc(a1-2)]Gal(b1-4)Glc
# Procedure, shortened: as §1
# [2] = target: Fuc(a1-2)Gal(b1-3)GalNAc(a1-3)[Fuc(a1-2)]Gal(b1-4)GlcNAc
# Procedure, shortened: as §1
# [3] = target: Fuc(a1-2)Gal(b1-3)GalNAc(b1-3)Gal
# Procedure, shortened: as §1
# [4] = target: Fuc(a1-2)Gal(b1-3)GalNAc(b1-3)Gal(a1-4)Gal(b1-4)Glc
# Procedure, shortened: as §1
# [5] = target: Fuc(a1-2)Gal(b1-3)GalNAc(b1-4)[Neu5Ac(a2-3)]Gal(b1-4)Glc
# Procedure, shortened: as §1
# Fuc(a1-2)Gal(b1-3)GlcNAc = target: Fuc(a1-2)Gal(b1-3)GlcNAc
# Procedure, shortened: as §1
# [6] = target: Fuc(a1-2)Gal(b1-3)GlcNAc(b1-2)Man(a1-3)[Fuc(a1-2)Gal(b1-3)GlcNAc(b1-2)Man(a1-6)]Man(b1-4)GlcNAc(b1-4)GlcNAc
# Procedure, shortened: as §1
# [7] = target: Fuc(a1-2)Gal(b1-3)GlcNAc(b1-2)Man(a1-3)[Fuc(a1-2)Gal(b1-3)GlcNAc(b1-2)Man(a1-6)]Man(b1-4)GlcNAc(b1-4)[Fuc(a1-6)]GlcNAc
# Procedure, shortened: as §1
# [8] = target: Fuc(a1-2)Gal(b1-3)GlcNAc(b1-3)Gal(b1-4)Glc
# Procedure, shortened: as §1
# [9] = target: Fuc(a1-2)Gal(b1-3)GlcNAc(b1-3)GalNAc
# Procedure, shortened: as §1
# [10] = target: Fuc(a1-2)Gal(b1-3)GlcNAc(b1-3)[Fuc(a1-2)Gal(b1-3)GlcNAc(b1-6)]GalNAc
# Procedure, shortened: as §1
# [11] = target: Fuc(a1-2)Gal(b1-3)GlcNAc(b1-3)[Gal(b1-4)GlcNAc(b1-6)]Gal(b1-4)Glc
# Procedure, shortened: as §1
# [12] = target: Fuc(a1-2)Gal(b1-3)GlcNAc(b1-3)[Neu5Ac(a2-6)Gal(b1-4)GlcNAc(b1-6)]Gal(b1-4)Glc
# Procedure, shortened: as §1
# [13] = target: Fuc(a1-2)Gal(b1-3)GlcNAc6S
# Procedure, shortened: as §1
# [14] = target: Fuc(a1-2)Gal(b1-3)[Fuc(a1-4)]GlcNAc
# Procedure, shortened: as §1
# [15] = target: Fuc(a1-2)Gal(b1-3)[Fuc(a1-4)]GlcNAc(b1-2)Man(a1-3)[Fuc(a1-2)Gal(b1-3)[Fuc(a1-4)]GlcNAc(b1-2)Man(a1-3)]Man(b1-4)GlcNAc(b1-4)GlcNAc
# Procedure, shortened: as §1
# [16] = target: Fuc(a1-2)Gal(b1-3)[Fuc(a1-4)]GlcNAc(b1-2)Man(a1-3)[Fuc(a1-2)Gal(b1-3)[Fuc(a1-4)]GlcNAc(b1-2)Man(a1-6)]Man(b1-4)GlcNAc(b1-4)[Fuc(a1-6)]GlcNAc(b1-4)[Fuc(a1-6)]GlcNAc
# Procedure, shortened: as §1
# [17] = target: Fuc(a1-2)Gal(b1-3)[Fuc(a1-4)]GlcNAc(b1-3)[Fuc(a1-3)[Gal(b1-4)]GlcNAc(b1-6)]Gal(b1-4)Glc
# Procedure, shortened: as §1
# [18] = target: Fuc(a1-2)Gal(b1-3)[Fuc(a1-4)]GlcNAc(b1-3)[Gal(b1-4)GlcNAc(b1-6)]Gal(b1-4)Glc
# Procedure, shortened: as §1
# [19] = target: Fuc(a1-2)Gal(b1-4)Fuc(a1-3)]GlcNAc(b1-2)Man(a1-3)[Fuc(a1-2)Gal(b1-4)[Fuc(a1-3)]GlcNAc(b1-2)Man(a1-6)]Man(b1-4)GlcNAc(b1-4)GlcNAc
# Procedure, shortened: as §1
# Fuc(a1-2)Gal(b1-4)Glc = target: Fuc(a1-2)Gal(b1-4)Glc
# Procedure, shortened: as §1
# Fuc(a1-2)Gal(b1-4)Glc6S = target: Fuc(a1-2)Gal(b1-4)Glc6S
# Procedure, shortened: as §1
# Fuc(a1-2)Gal(b1-4)GlcNAc = target: Fuc(a1-2)Gal(b1-4)GlcNAc
# Procedure, shortened: as §1
# [20] = target: Fuc(a1-2)Gal(b1-4)GlcNAc(b1-2)Man
# Procedure, shortened: as §1
# [21] = target: Fuc(a1-2)Gal(b1-4)GlcNAc(b1-2)Man(a1-3)[Fuc(a1-2)Gal(b1-4)GlcNAc(b1-2)Man(a1-6)]Man(b1-4)GlcNAc(b1-4)GlcNAc
# Procedure, shortened: as §1
# [22] = target: Fuc(a1-2)Gal(b1-4)GlcNAc(b1-2)Man(a1-3)[Fuc(a1-2)Gal(b1-4)GlcNAc(b1-2)Man(a1-6)]Man(b1-4)GlcNAc(b1-4)[Fuc(a1-6)]GlcNAc
# Procedure, shortened: as §1
# [23] = target: Fuc(a1-2)Gal(b1-4)GlcNAc(b1-2)[Fuc(a1-2)Gal(b1-4)GlcNAc(b1-4)]Man(a1-3)[Fuc(a1-2)Gal(b1-4)GlcNAc(b1-2)Man(a1-6)]Man(b1-4)GlcNAc(b1-4)GlcNAc
# Procedure, shortened: as §1
# [24] = target: Fuc(a1-2)Gal(b1-4)GlcNAc(b1-3)Gal(b1-4)GlcNAc
# Procedure, shortened: as §1
binder,measurement,setting,value
B1,glycan array binding signal (z-score),Fuc(a1-2)Gal,-0.119
same,glycan array binding signal (z-score),Fuc(a1-2)Gal(b1-3)GalNAc,-0.451
same,glycan array binding signal (z-score),[1],0.847
same,glycan array binding signal (z-score),[2],0.211
same,glycan array binding signal (z-score),[3],-0.622
same,glycan array binding signal (z-score),[4],-0.395
same,glycan array binding signal (z-score),[5],2.03
same,glycan array binding signal (z-score),Fuc(a1-2)Gal(b1-3)GlcNAc,0.018
same,glycan array binding signal (z-score),[6],2.66
same,glycan array binding signal (z-score),[7],0.184
same,glycan array binding signal (z-score),[8],3.25
same,glycan array binding signal (z-score),[9],-0.484
same,glycan array binding signal (z-score),[10],0.827
same,glycan array binding signal (z-score),[11],-0.698
same,glycan array binding signal (z-score),[12],-0.497
same,glycan array binding signal (z-score),[13],-0.334
same,glycan array binding signal (z-score),[14],-0.148
same,glycan array binding signal (z-score),[15],2.58
same,glycan array binding signal (z-score),[16],-0.552
same,glycan array binding signal (z-score),[17],-0.687
same,glycan array binding signal (z-score),[18],-0.776
same,glycan array binding signal (z-score),[19],1.06
same,glycan array binding signal (z-score),Fuc(a1-2)Gal(b1-4)Glc,-0.506
same,glycan array binding signal (z-score),Fuc(a1-2)Gal(b1-4)Glc6S,-0.606
same,glycan array binding signal (z-score),Fuc(a1-2)Gal(b1-4)GlcNAc,-0.547
same,glycan array binding signal (z-score),[20],-0.154
same,glycan array binding signal (z-score),[21],0.998
same,glycan array binding signal (z-score),[22],-0.001
same,glycan array binding signal (z-score),[23],-0.153
same,glycan array binding signal (z-score),[24],1.07

# Some of the entries so far, as tab-separated lines:
binder	measurement	setting	value
B1	glycan array binding signal (z-score)	[4]	-0.395
same	glycan array binding signal (z-score)	[5]	2.03
